Source: PubChem BioAssay AID1508597 (Cure First, 2020)
Here is one part, drawn at random, of about 2,100 reagents tested. 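Calls flag viability under 80% in either arm, not effects specific to rucaparib; the reference for percent is not stated.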 Unmarked entries are inactive. Not given: the 100% reference.

Test: 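Survival screen with siRNA in ovarian cancer cells derived from patients, with or without rucaparib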 (primary screen)
Cell system: human ovarian carcinoma lines grown from tumours: OCI-P5x (papillary serous) and OCI-C5x (clear cell)
Knock-down reagent: siRNA pool against human genes, 1.25 pmol siRNA per well
Duration: 72 h or 96 h, depending on the cell culture
Conditions: rucaparib 20 µM (about IC30) or vehicle, present until read-out
Read-out: 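ATP luminescence measured at 72 or 96 h according to the culture, then normalised and expressed as percent viability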
Reading the numbers: viability, normalised: higher = more viable cells remaining
Active means: 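Active when normalised viability falls below 80 percent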
Calls: active = viability under 80%; inactive = viability 80% or more

ATP7A, rucaparib or vehicle Rucaparib, cell line OCI-C5x (clear cell), technical replicate 1 showed viability, normalised (%) = 60.6 (active).
For ATP7A, rucaparib or vehicle Rucaparib, cell line OCI-C5x (clear cell), technical replicate 2, the values are viability, normalised (%) = 60.7 (active).
For ATP7A, rucaparib or vehicle Rucaparib, cell line OCI-C5x (clear cell), technical replicate 3, the values are viability, normalised (%) = 46.4 (active).
With ATP7A, rucaparib or vehicle Rucaparib, cell line OCI-P5x (serous), technical replicate 1, the values are viability, normalised (%) = 66.1 (active).
ATP7A, rucaparib or vehicle Rucaparib, cell line OCI-P5x (serous), technical replicate 2 showed viability, normalised (%) = 71.6 (active).
ATP7A, rucaparib or vehicle Rucaparib, cell line OCI-P5x (serous), technical replicate 3 showed viability, normalised (%) = 72.9 (active).
With ATP7A, rucaparib or vehicle Vehicle, cell line OCI-C5x (clear cell), technical replicate 1, the entry reads viability, normalised (%) = 32 (active).
ATP7A, rucaparib or vehicle Vehicle, cell line OCI-C5x (clear cell), technical replicate 2 showed viability, normalised (%) = 34.2 (active).
ATP7A, rucaparib or vehicle Vehicle, cell line OCI-C5x (clear cell), technical replicate 3 scored viability, normalised (%) = 41.3 (active).
With ATP7A, rucaparib or vehicle Vehicle, cell line OCI-P5x (serous), technical replicate 1 the deposit lists viability, normalised (%) = 52.2 (active).
ATP7A, rucaparib or vehicle Vehicle, cell line OCI-P5x (serous), technical replicate 2 scored viability, normalised (%) = 65.3 (active).
For ATP7A, rucaparib or vehicle Vehicle, cell line OCI-P5x (serous), technical replicate 3, the entry reads viability, normalised (%) = 59.5 (active).
